# Some of the results follow.
# What was measured:
# Experiment in all cases: glycan array binding signal (z-score within array); higher = stronger binding
# Conditions in all cases: glycan notation: IUPAC condensed, linker removed
# [1] = biological target: GlcNAc(b1-3)Gal(b1-3)GalNAc
# In short: (§1)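 The binding signal is a Z-score computed within each array. Data were drawn from 3228 arrays in the Consortium for Functional Glycomics database, restricted to those with a known protein sequence. Scores were averaged over arrays of the same protein sequence at different concentrations or buffers, and over linkers, and negative values can be taken as non-binding.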
# GlcNAc(b1-3)Gal(b1-4)Glc = biological target: GlcNAc(b1-3)Gal(b1-4)Glc
# In short: as §1
# [2] = biological target: GlcNAc(b1-3)Gal(b1-4)GlcNAc
# In short: as §1
# [3] = biological target: GlcNAc(b1-3)Gal(b1-4)GlcNAc(b1-2)Man(a1-3)[GlcNAc(b1-3)Gal(b1-4)GlcNAc(b1-2)Man(a1-6)]Man(b1-4)GlcNAc(b1-4)GlcNAc
# In short: as §1
# [4] = biological target: GlcNAc(b1-3)Gal(b1-4)GlcNAc(b1-2)Man(a1-3)[GlcNAc(b1-3)Gal(b1-4)GlcNAc(b1-2)Man(a1-6)]Man(b1-4)GlcNAc(b1-4)[Fuc(a1-6)]GlcNAc
# In short: as §1
# [5] = biological target: GlcNAc(b1-3)Gal(b1-4)GlcNAc(b1-2)[GlcNAc(b1-3)Gal(b1-4)GlcNAc(b1-6)]Man(a1-6)[GlcNAc(b1-3)Gal(b1-4)GlcNAc(b1-2)Man(a1-3)]Man(b1-4)GlcNAc(b1-4)GlcNAc
# In short: as §1
# [6] = biological target: GlcNAc(b1-3)Gal(b1-4)GlcNAc(b1-3)Gal(b1-4)GlcNAc
# In short: as §1
# [7] = biological target: GlcNAc(b1-3)Gal(b1-4)GlcNAc(b1-3)Gal(b1-4)GlcNAc(b1-2)Man(a1-3)[GlcNAc(b1-3)Gal(b1-4)GlcNAc(b1-3)Gal(b1-4)GlcNAc(b1-2)Man(a1-6)]Man(b1-4)GlcNAc(b1-4)GlcNAc
# In short: as §1
# [8] = biological target: GlcNAc(b1-3)Gal(b1-4)GlcNAc(b1-3)Gal(b1-4)GlcNAc(b1-2)Man(a1-3)[GlcNAc(b1-3)Gal(b1-4)GlcNAc(b1-3)Gal(b1-4)GlcNAc(b1-2)Man(a1-6)]Man(b1-4)GlcNAc(b1-4)[Fuc(a1-6)]GlcNAc
# In short: as §1
# [9] = biological target: GlcNAc(b1-3)Gal(b1-4)GlcNAc(b1-3)Gal(b1-4)GlcNAc(b1-2)[GlcNAc(b1-3)Gal(b1-4)GlcNAc(b1-3)Gal(b1-4)GlcNAc(b1-6)]Man(a1-6)[GlcNAc(b1-3)Gal(b1-4)GlcNAc(b1-3)Gal(b1-4)GlcNAc(b1-2)Man(a1-3)]Man(b1-4)GlcNAc(b1-4)[Fuc(a1-6)]GlcNAc
# In short: as §1
# [10] = biological target: GlcNAc(b1-3)Gal(b1-4)GlcNAc(b1-3)Gal(b1-4)GlcNAc(b1-3)Gal(b1-4)GlcNAc(b1-2)Man(a1-3)[GlcNAc(b1-3)Gal(b1-4)GlcNAc(b1-3)Gal(b1-4)GlcNAc(b1-3)Gal(b1-4)GlcNAc(b1-2)Man(a1-6)]Man(b1-4)GlcNAc(b1-4)GlcNAc
# In short: as §1
# [11] = biological target: GlcNAc(b1-3)Gal(b1-4)GlcNAc(b1-3)Gal(b1-4)GlcNAc(b1-3)Gal(b1-4)GlcNAc(b1-2)Man(a1-3)[GlcNAc(b1-3)Gal(b1-4)GlcNAc(b1-3)Gal(b1-4)GlcNAc(b1-3)Gal(b1-4)GlcNAc(b1-2)Man(a1-6)]Man(b1-4)GlcNAc(b1-4)[Fuc(a1-6)]GlcNAc
# In short: as §1
# [12] = biological target: GlcNAc(b1-3)Gal(b1-4)GlcNAc(b1-3)Gal(b1-4)GlcNAc(b1-3)Gal(b1-4)GlcNAc(b1-2)[GlcNAc(b1-3)Gal(b1-4)GlcNAc(b1-3)Gal(b1-4)GlcNAc(b1-3)Gal(b1-4)GlcNAc(b1-6)]Man(a1-6)[GlcNAc(b1-3)Gal(b1-4)GlcNAc(b1-3)Gal(b1-4)GlcNAc(b1-3)Gal(b1-4)GlcNAc(b1-2)Man(a1-3)]Man(b1-4)GlcNAc(b1-4)[Fuc(a1-6)]GlcNAc
# In short: as §1
# [13] = biological target: GlcNAc(b1-3)Gal(b1-4)GlcNAc(b1-3)Gal(b1-4)GlcNAc(b1-3)Gal(b1-4)GlcNAc(b1-3)Gal(b1-4)GlcNAc(b1-2)Man(a1-3)[GlcNAc(b1-3)Gal(b1-4)GlcNAc(b1-3)Gal(b1-4)GlcNAc(b1-3)Gal(b1-4)GlcNAc(b1-3)Gal(b1-4)GlcNAc(b1-2)Man(a1-6)]Man(b1-4)GlcNAc(b1-4)GlcNAc
# In short: as §1
# [14] = biological target: GlcNAc(b1-3)Gal(b1-4)GlcNAc(b1-3)Gal(b1-4)GlcNAc(b1-3)Gal(b1-4)GlcNAc(b1-3)Gal(b1-4)GlcNAc(b1-2)Man(a1-3)[GlcNAc(b1-3)Gal(b1-4)GlcNAc(b1-3)Gal(b1-4)GlcNAc(b1-3)Gal(b1-4)GlcNAc(b1-3)Gal(b1-4)GlcNAc(b1-2)Man(a1-6)]Man(b1-4)GlcNAc(b1-4)[Fuc(a1-6)]GlcNAc
# In short: as §1
# [15] = biological target: GlcNAc(b1-3)Gal(b1-4)GlcNAc(b1-3)Gal(b1-4)GlcNAc(b1-3)Gal(b1-4)GlcNAc(b1-3)Gal(b1-4)GlcNAc(b1-2)[GlcNAc(b1-3)Gal(b1-4)GlcNAc(b1-3)Gal(b1-4)GlcNAc(b1-3)Gal(b1-4)GlcNAc(b1-3)Gal(b1-4)GlcNAc(b1-6)]Man(a1-6)[GlcNAc(b1-3)Gal(b1-4)GlcNAc(b1-3)Gal(b1-4)GlcNAc(b1-3)Gal(b1-4)GlcNAc(b1-3)Gal(b1-4)GlcNAc(b1-2)Man(a1-3)]Man(b1-4)GlcNAc(b1-4)[Fuc(a1-6)]GlcNAc
# In short: as §1
# [16] = biological target: GlcNAc(b1-3)Gal(b1-4)GlcNAc(b1-3)Gal(b1-4)GlcNAc(b1-3)GalNAc
# In short: as §1
# [17] = biological target: GlcNAc(b1-3)Gal(b1-4)GlcNAc(b1-3)GalNAc
# In short: as §1
# [18] = biological target: GlcNAc(b1-3)Gal(b1-4)GlcNAc(b1-3)[GlcNAc(b1-3)Gal(b1-4)GlcNAc(b1-3)]GalNAc
# In short: as §1
# [19] = biological target: GlcNAc(b1-3)Gal(b1-4)GlcNAc(b1-6)[Gal(b1-3)]GalNAc
# In short: as §1
# [20] = biological target: GlcNAc(b1-3)Gal(b1-4)GlcNAc(b1-6)[GlcNAc(b1-3)Gal(b1-3)]GalNAc
# In short: as §1
# [21] = biological target: GlcNAc(b1-3)Gal(b1-4)GlcNAc(b1-6)[GlcNAc(b1-3)]Gal(b1-4)GlcNAc
# In short: as §1
# GlcNAc(b1-3)GalNAc = biological target: GlcNAc(b1-3)GalNAc
# In short: as §1
# GlcNAc(b1-3)Man = biological target: GlcNAc(b1-3)Man
# In short: as §1
# [22] = biological target: GlcNAc(b1-3)[GlcNAc(b1-4)][GlcNAc(b1-6)]GlcNAc
# In short: as §1
# [23] = biological target: GlcNAc(b1-3)[GlcNAc(b1-6)]Gal(b1-4)GlcNAc
# In short: as §1
# [24] = biological target: GlcNAc(b1-3)[GlcNAc(b1-6)]GalNAc
# In short: as §1
# [25] = biological target: GlcNAc(b1-4)Gal(b1-4)GlcNAc
# In short: as §1
# GlcNAc(b1-4)GlcNAc = biological target: GlcNAc(b1-4)GlcNAc
# In short: as §1
# [26] = biological target: GlcNAc(b1-4)GlcNAc(b1-4)GlcNAc
# In short: as §1
# [27] = biological target: GlcNAc(b1-4)GlcNAc(b1-4)GlcNAc(b1-4)GlcNAc(b1-4)GlcNAc
# In short: as §1
# [28] = biological target: GlcNAc(b1-4)GlcNAc(b1-4)GlcNAc(b1-4)GlcNAc(b1-4)GlcNAc(b1-4)GlcNAc
# In short: as §1
# [29] = biological target: GlcNAc(b1-4)[GlcNAc(b1-6)]GalNAc
# In short: as §1
# [30] = biological target: GlcNAc(b1-6)Gal(b1-4)GlcNAc
# In short: as §1
# GlcNAc(b1-6)GalNAc = biological target: GlcNAc(b1-6)GalNAc
# In short: as §1
# [31] = biological target: GlcNAc6S(b1-3)Gal(b1-4)GlcNAc
# In short: as §1
# Kdn(a2-3)Gal(b1-3)GalNAc = biological target: Kdn(a2-3)Gal(b1-3)GalNAc
# In short: as §1
binder,measurement,setting,value
"RsaA-N-term (Caulobacter crescentus), P35828 (protein) MAYTTAQLVTAYTNANLGKAPDAATTLTLDAYATQTQTGGLSDAAALTNTLKLVNSTTAVAIQTYQFFTGVAPSAAGLDFLVDSTTNTNDLNDAYYSKFAQENRFINFSINLATGAGAGATAFAAAYTGVSYAQTVATAYDKIIGNAVATAAGVDVAAAVAFLSRQANIDYLTAFVRANTPFTAAADIDLAVKAALIGTILNAATVSGIGGYATATAAMINDLSDGALSTDNAAGVNLFTAYPSSGVSGSTLSLTTGTDTLTGTANNDTFVAGEVAGDGSGWSHPQFEKGG",glycan array binding signal (z-score),[1],0.337
same,glycan array binding signal (z-score),GlcNAc(b1-3)Gal(b1-4)Glc,-0.647
same,glycan array binding signal (z-score),[2],-0.005
same,glycan array binding signal (z-score),[3],2.18
same,glycan array binding signal (z-score),[4],1.5
same,glycan array binding signal (z-score),[5],0.218
same,glycan array binding signal (z-score),[6],0.629
same,glycan array binding signal (z-score),[7],2.59
same,glycan array binding signal (z-score),[8],1.65
same,glycan array binding signal (z-score),[9],0.425
same,glycan array binding signal (z-score),[10],0.491
same,glycan array binding signal (z-score),[11],0.299
same,glycan array binding signal (z-score),[12],0.217
same,glycan array binding signal (z-score),[13],1.09
same,glycan array binding signal (z-score),[14],-0.37
same,glycan array binding signal (z-score),[15],0.312
same,glycan array binding signal (z-score),[16],0.037
same,glycan array binding signal (z-score),[17],-0.557
same,glycan array binding signal (z-score),[18],-0.645
same,glycan array binding signal (z-score),[19],-0.217
same,glycan array binding signal (z-score),[20],-0.111
same,glycan array binding signal (z-score),[21],-0.727
same,glycan array binding signal (z-score),GlcNAc(b1-3)GalNAc,-0.788
same,glycan array binding signal (z-score),GlcNAc(b1-3)Man,0.009
same,glycan array binding signal (z-score),[22],-0.538
same,glycan array binding signal (z-score),[23],-0.423
same,glycan array binding signal (z-score),[24],-0.047
same,glycan array binding signal (z-score),[25],-0.868
same,glycan array binding signal (z-score),GlcNAc(b1-4)GlcNAc,-0.611
same,glycan array binding signal (z-score),[26],-0.004
same,glycan array binding signal (z-score),[27],-0.063
same,glycan array binding signal (z-score),[28],-1.09
same,glycan array binding signal (z-score),[29],-0.221
same,glycan array binding signal (z-score),[30],-0.467
same,glycan array binding signal (z-score),GlcNAc(b1-6)GalNAc,0.278
same,glycan array binding signal (z-score),[31],1.83
same,glycan array binding signal (z-score),Kdn(a2-3)Gal(b1-3)GalNAc,-1.24

# Rewritten with bars between the fields: part of the list above
binder | measurement | setting | value
RsaA-N-term (Caulobacter crescentus), P35828 (protein) MAYTTAQLVTAYTNANLGKAPDAATTLTLDAYATQTQTGGLSDAAALTNTLKLVNSTTAVAIQTYQFFTGVAPSAAGLDFLVDSTTNTNDLNDAYYSKFAQENRFINFSINLATGAGAGATAFAAAYTGVSYAQTVATAYDKIIGNAVATAAGVDVAAAVAFLSRQANIDYLTAFVRANTPFTAAADIDLAVKAALIGTILNAATVSGIGGYATATAAMINDLSDGALSTDNAAGVNLFTAYPSSGVSGSTLSLTTGTDTLTGTANNDTFVAGEVAGDGSGWSHPQFEKGG | glycan array binding signal (z-score) | GlcNAc(b1-3)Gal(b1-4)Glc | -0.647
same | glycan array binding signal (z-score) | [2] | -0.005
same | glycan array binding signal (z-score) | [3] | 2.18
same | glycan array binding signal (z-score) | [4] | 1.5
same | glycan array binding signal (z-score) | [5] | 0.218
same | glycan array binding signal (z-score) | [6] | 0.629
same | glycan array binding signal (z-score) | [7] | 2.59
same | glycan array binding signal (z-score) | [8] | 1.65
same | glycan array binding signal (z-score) | [9] | 0.425
same | glycan array binding signal (z-score) | [10] | 0.491
